Source: paper PMC9489697
Read-outs that look alike come from different tables or passages of the source. Results are given in words; binding and its absence hold for the method and conditions named. In cells and extracts the contact can be indirect. Some binding calls cover weakened binding; strength is not graded here.

Chains of the proteins cited; added tags and fusions are not shown. Lines headed by an entry give the natural chain unless they say otherwise; changes in a name come on top. Residues count along the entry.
UniProt Q13485: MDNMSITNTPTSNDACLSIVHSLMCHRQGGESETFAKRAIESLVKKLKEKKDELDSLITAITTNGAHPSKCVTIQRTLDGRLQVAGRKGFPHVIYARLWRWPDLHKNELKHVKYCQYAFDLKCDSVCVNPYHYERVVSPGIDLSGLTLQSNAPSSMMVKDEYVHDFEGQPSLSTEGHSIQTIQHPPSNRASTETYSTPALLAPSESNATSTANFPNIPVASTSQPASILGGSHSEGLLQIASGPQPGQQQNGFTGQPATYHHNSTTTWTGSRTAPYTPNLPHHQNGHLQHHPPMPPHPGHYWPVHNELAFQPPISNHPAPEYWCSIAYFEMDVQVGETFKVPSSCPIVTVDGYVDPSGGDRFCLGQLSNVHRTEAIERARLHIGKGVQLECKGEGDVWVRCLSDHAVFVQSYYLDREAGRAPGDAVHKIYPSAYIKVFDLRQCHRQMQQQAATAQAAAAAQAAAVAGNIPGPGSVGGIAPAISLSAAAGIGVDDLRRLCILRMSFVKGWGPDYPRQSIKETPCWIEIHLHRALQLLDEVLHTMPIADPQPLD
UniProt P19838, residues 1-433: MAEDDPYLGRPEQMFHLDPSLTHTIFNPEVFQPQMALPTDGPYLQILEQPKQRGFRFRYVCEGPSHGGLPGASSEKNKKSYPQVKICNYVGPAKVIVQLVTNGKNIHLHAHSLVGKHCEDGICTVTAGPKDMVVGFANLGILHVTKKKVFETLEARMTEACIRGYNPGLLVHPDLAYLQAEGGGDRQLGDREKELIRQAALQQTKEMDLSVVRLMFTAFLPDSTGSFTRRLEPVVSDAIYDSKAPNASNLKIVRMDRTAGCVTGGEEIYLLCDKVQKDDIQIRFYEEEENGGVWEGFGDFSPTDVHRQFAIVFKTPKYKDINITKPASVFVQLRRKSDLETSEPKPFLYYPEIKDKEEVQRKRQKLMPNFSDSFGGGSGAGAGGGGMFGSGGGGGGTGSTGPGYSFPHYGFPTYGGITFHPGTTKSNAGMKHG
UniProt Q04206: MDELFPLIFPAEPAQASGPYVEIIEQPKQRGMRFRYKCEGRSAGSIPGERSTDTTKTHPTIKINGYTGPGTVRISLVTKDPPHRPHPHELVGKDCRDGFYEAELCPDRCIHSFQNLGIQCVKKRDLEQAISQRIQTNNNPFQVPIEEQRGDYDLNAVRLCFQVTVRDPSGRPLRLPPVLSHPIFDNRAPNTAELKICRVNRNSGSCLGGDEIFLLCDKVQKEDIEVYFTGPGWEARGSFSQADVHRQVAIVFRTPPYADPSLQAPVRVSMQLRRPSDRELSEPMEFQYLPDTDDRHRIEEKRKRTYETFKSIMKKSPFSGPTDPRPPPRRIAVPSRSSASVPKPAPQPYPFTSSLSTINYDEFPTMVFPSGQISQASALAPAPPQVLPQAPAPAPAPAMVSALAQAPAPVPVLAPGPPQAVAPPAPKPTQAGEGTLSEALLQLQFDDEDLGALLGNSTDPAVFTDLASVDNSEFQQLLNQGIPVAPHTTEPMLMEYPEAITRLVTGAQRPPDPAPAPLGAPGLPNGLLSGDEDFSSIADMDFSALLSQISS

Assays:
Experiment in all cases: co-IP; lysates of BxPC3-EV, BxPC3-WT and BxPC3-Mut stably transfected cells, with or without DTLL induction; precipitated with SMAD4 antibody (rabbit normal IgG as control) at 4 °C overnight, protein A/G agarose beads; Western blot of the eluates
[1] = target: wild-type SMAD4 (mothers against decapentaplegic homolog 4) (human) (UniProt Q13485)
[2] = target: mutant SMAD4 (R100T) (human) (UniProt Q13485)
[3] = target: wild-type SMAD4 (mothers against decapentaplegic homolog 4) (human) (UniProt Q13485); remark: listed apart in the source
[4] = target: mutant SMAD4 (R100T) (human) (UniProt Q13485); remark: listed apart in the source

## P50 unit of NF-κB (from UniProt P19838 1-433)
[1]
  binding: binds
[2]
  binding: binds

## P65 unit of NF-κB (from UniProt Q04206 1-551)
[1]
  binding: binds
[2]
  binding: binds

B1: TRIM33 (enzyme, UniProt Q9UPN9 1-1127)
chain: MAENKGGGEAESGGGGSGSAPVTAGAAGPAAQEAEPPLTAVLVEEEEEEGGRAGAEGGAAGPDDGGVAAASSGSAQAASSPAASVGTGVAGGAVSTPAPAPASAPAPGPSAGPPPGPPASLLDTCAVCQQSLQSRREAEPKLLPCLHSFCLRCLPEPERQLSVPIPGGSNGDIQQVGVIRCPVCRQECRQIDLVDNYFVKDTSEAPSSSDEKSEQVCTSCEDNASAVGFCVECGEWLCKTCIEAHQRVKFTKDHLIRKKEDVSESVGASGQRPVFCPVHKQEQLKLFCETCDRLTCRDCQLLEHKEHRYQFLEEAFQNQKGAIENLLAKLLEKKNYVHFAATQVQNRIKEVNETNKRVEQEIKVAIFTLINEINKKGKSLLQQLENVTKERQMKLLQQQNDITGLSRQVKHVMNFTNWAIASGSSTALLYSKRLITFQLRHILKARCDPVPAANGAIRFHCDPTFWAKNVVNLGNLVIESKPAPGYTPNVVVGQVPPGTNHISKTPGQINLAQLRLQHMQQQVYAQKHQQLQQMRMQQPPAPVPTTTTTTQQHPRQAAPQMLQQQPPRLISVQTMQRGNMNCGAFQAHQMRLAQNAARIPGIPRHSGPQYSMMQPHLQRQHSNPGHAGPFPVVSVHNTTINPTSPTTATMANANRGPTSPSVTAIELIPSVTNPENLPSLPDIPPIQLEDAGSSSLDNLLSRYISGSHLPPQPTSTMNPSPGPSALSPGSSGLSNSHTPVRPPSTSSTGSRGSCGSSGRTAEKTSLSFKSDQVKVKQEPGTEDEICSFSGGVKQEKTEDGRRSACMLSSPESSLTPPLSTNLHLESELDALASLENHVKIEPADMNESCKQSGLSSLVNGKSPIRSLMHRSARIGGDGNNKDDDPNEDWCAVCQNGGDLLCCEKCPKVFHLTCHVPTLLSFPSGDWICTFCRDIGKPEVEYDCDNLQHSKKGKTAQGLSPVDQRKCERLLLYLYCHELSIEFQEPVPASIPNYYKIIKKPMDLSTVKKKLQKKHSQHYQIPDDFVADVRLIFKNCERFNEMMKVVQVYADTQEINLKADSEVAQAGKAVALYFEDKLTEIYSDRTFAPLPEFEQEEDDGEVTEDSDEDFIQPRRKRLKSDERPVHIK
[3]
  binding: binds
[4]
  binding: binds
